Data as given in article PMC12678834.
Results are given in words; binding and its absence hold for the method and conditions named. Binding seen in cells or lysates may run through a third protein. Some binding calls cover weakened binding; strength is not graded here. Where a sequence is shown, tags or fusion partners need not be part of it.

By UniProt entry, the sequences of proteins in these tests, tags left out. Where a name states a change or a piece, a line headed by the entry shows the natural chain unless it says otherwise. Chains listed by the source or under a name are the forms on record and can include a tag or linker. Residues count along the entry.
DLL1-mTQ2-HA (human Delta-like 1) (O00548, residues 18-723): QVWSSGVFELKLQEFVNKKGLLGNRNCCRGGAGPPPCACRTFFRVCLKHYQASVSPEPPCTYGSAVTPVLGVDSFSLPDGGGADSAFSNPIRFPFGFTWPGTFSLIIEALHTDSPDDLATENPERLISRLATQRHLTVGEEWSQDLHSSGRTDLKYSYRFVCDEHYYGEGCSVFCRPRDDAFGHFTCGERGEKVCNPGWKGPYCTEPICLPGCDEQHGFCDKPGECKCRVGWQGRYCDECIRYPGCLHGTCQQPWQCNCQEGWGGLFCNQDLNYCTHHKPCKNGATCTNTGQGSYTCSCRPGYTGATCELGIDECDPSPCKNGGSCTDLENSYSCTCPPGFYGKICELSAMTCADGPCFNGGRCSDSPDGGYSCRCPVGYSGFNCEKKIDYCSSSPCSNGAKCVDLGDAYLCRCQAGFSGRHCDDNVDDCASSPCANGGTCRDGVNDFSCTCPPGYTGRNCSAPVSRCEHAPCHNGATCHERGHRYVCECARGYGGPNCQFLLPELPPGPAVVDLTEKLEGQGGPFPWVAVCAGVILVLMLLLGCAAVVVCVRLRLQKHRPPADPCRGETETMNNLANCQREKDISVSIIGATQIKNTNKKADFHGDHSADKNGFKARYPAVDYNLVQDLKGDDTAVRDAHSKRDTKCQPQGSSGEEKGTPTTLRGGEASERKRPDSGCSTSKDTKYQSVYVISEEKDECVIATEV
DLL1-N2D-mTQ2-HA (human Delta-like 1 with the second N of the NxxN motif NLAN changed to D) (O00548, form named): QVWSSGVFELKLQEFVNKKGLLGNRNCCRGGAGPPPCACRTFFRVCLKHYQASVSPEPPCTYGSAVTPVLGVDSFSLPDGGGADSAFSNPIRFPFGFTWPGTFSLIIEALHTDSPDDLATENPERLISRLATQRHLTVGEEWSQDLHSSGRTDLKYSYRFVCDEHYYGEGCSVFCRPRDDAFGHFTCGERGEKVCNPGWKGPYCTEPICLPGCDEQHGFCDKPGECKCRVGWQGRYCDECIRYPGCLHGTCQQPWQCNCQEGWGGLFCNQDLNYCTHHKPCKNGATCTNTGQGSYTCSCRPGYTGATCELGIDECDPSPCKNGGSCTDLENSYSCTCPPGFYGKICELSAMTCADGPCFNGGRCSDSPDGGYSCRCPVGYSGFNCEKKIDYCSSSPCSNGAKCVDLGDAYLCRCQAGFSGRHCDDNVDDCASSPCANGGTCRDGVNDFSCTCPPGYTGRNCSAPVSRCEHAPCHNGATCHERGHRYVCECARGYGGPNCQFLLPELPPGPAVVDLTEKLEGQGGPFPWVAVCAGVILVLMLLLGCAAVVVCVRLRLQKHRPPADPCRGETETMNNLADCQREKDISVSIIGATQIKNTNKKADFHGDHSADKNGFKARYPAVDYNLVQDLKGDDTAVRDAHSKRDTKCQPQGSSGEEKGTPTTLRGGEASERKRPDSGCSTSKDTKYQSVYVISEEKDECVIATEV
DLL4-mTQ2-HA (human Delta-like 4) (Q9NR61, residues 27-685): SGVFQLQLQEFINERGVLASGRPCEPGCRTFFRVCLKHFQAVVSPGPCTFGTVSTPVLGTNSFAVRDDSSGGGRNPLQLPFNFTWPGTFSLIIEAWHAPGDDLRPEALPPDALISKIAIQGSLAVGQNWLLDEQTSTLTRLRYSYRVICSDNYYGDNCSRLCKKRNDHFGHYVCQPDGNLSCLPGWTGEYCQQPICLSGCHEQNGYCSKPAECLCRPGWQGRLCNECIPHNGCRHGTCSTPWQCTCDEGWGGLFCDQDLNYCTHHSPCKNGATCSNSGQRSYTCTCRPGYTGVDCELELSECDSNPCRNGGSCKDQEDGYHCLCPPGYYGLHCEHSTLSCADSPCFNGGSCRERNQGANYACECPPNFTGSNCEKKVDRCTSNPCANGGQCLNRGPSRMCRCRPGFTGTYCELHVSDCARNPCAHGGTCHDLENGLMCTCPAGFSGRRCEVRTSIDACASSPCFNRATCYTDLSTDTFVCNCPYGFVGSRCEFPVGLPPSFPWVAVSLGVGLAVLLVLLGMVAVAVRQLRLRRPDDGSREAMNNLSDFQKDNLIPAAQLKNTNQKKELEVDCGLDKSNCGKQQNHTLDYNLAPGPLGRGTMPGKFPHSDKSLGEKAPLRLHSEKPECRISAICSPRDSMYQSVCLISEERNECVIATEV
DLL4-D2N-mTQ2-HA (human Delta-like 4 with the D of the cryptic motif NLSD changed to N) (Q9NR61, form named): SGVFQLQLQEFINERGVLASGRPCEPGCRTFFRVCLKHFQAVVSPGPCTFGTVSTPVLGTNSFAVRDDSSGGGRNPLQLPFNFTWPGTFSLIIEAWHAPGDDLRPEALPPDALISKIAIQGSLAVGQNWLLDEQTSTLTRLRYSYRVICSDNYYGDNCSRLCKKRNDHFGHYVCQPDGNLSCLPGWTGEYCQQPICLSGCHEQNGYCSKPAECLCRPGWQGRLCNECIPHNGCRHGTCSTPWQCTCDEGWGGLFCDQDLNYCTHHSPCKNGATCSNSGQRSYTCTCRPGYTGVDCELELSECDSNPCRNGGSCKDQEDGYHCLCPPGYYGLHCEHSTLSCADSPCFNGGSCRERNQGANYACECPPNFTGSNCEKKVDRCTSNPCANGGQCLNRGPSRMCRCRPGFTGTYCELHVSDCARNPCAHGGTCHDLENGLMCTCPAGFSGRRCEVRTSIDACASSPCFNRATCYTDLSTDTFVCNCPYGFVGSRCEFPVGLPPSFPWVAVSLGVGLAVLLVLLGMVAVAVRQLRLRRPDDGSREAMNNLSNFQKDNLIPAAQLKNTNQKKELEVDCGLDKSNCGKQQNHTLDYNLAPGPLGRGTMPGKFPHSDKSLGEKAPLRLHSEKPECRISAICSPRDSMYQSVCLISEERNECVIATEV
JAG1-mTQ2-HA (human Jagged 1) (P78504, residues 34-1218): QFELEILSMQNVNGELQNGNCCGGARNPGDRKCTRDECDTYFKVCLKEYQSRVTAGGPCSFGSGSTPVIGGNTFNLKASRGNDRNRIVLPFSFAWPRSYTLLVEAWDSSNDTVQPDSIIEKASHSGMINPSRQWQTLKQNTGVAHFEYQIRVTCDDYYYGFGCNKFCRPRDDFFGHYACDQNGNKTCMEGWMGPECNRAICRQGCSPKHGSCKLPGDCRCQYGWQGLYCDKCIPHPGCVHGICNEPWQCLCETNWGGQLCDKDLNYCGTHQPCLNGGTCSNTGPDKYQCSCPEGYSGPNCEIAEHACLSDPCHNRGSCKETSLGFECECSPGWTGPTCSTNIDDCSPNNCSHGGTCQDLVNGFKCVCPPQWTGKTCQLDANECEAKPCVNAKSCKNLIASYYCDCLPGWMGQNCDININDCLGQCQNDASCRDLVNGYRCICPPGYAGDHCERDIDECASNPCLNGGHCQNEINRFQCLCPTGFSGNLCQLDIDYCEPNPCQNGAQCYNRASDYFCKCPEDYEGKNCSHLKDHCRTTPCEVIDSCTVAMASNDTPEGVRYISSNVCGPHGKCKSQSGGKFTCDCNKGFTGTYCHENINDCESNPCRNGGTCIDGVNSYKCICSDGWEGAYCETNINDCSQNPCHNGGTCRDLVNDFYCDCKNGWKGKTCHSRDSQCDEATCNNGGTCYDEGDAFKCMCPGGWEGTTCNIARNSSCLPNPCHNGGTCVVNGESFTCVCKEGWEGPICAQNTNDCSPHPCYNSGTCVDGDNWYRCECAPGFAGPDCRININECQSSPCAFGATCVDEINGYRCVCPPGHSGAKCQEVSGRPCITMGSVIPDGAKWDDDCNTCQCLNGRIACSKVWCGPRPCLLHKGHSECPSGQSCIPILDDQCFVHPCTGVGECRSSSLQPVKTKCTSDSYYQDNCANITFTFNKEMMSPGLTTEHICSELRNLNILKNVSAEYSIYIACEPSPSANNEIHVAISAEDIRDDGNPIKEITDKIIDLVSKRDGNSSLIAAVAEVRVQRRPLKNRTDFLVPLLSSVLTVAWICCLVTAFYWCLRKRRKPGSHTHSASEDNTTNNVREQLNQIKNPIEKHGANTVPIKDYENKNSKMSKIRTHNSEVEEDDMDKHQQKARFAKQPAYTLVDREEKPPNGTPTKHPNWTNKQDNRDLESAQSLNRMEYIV
JAG1-N2A-mTQ2-HA (human Jagged 1 with the first N of the NxxN motif NTTN changed to A) (P78504, form named): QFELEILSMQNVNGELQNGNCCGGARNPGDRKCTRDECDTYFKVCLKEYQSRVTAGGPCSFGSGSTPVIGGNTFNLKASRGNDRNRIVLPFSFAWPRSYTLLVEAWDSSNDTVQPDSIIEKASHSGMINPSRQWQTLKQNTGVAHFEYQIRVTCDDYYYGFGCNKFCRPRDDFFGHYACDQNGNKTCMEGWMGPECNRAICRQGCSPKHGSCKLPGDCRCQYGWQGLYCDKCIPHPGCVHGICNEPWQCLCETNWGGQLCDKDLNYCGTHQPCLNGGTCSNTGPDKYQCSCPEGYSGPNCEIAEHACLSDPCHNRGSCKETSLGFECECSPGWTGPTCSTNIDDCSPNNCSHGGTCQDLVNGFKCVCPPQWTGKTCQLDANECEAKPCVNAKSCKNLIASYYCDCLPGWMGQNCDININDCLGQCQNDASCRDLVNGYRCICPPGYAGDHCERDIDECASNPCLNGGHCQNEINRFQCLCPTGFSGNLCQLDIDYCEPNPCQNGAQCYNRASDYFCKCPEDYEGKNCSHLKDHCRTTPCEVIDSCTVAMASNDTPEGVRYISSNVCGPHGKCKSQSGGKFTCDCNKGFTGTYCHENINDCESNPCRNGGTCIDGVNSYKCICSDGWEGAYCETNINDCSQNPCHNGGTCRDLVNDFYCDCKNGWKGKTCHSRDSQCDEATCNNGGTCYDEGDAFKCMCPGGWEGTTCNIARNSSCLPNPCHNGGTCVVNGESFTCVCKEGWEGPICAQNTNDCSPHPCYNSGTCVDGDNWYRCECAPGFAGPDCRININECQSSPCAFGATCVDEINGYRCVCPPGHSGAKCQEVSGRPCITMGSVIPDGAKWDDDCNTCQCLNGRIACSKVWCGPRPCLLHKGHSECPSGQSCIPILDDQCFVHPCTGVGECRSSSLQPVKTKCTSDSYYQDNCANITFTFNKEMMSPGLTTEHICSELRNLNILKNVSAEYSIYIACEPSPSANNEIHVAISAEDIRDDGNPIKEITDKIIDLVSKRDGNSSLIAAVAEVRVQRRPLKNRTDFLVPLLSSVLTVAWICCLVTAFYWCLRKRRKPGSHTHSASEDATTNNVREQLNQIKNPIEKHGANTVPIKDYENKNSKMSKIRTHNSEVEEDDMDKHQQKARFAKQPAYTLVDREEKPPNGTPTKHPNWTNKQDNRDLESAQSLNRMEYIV

Target: T1, NEURL1-mCherry-FLAG (human Neuralized-like 1) (human) (UniProt O76050)
T1 sequence: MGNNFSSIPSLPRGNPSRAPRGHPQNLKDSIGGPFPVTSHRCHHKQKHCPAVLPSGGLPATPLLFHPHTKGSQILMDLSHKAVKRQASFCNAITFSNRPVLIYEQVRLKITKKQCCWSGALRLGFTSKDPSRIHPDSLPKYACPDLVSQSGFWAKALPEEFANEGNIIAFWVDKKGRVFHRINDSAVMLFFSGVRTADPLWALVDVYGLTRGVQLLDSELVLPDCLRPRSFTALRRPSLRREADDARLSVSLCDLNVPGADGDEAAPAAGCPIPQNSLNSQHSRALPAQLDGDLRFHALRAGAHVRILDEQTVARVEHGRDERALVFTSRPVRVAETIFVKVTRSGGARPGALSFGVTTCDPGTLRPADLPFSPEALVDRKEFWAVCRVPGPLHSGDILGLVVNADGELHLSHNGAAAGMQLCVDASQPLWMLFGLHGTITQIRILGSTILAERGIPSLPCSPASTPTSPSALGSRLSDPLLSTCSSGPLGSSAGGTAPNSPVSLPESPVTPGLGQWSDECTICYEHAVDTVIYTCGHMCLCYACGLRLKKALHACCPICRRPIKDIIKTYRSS
Assay: co-IP; NEURL1-mCherry-FLAG as bait, precipitated with mouse anti-FLAG M2 and anti-mouse IgG-agarose beads from 1 mg cell lysate (50 mM Hepes pH 7.5, 3 mM EDTA, 3 mM CaCl2, 80 mM NaCl, 1% Triton), 18 h at 4 °C; co-precipitated HA-tagged ligands detected by anti-HA Western blot

binding, binds:
DLL1-N2D-mTQ2-HA (human Delta-like 1 with the second N of the NxxN motif NLAN changed to D) (from UniProt O00548 18-723) (ligand)
DLL1-mTQ2-HA (human Delta-like 1) (from UniProt O00548 18-723) (ligand)
DLL4-D2N-mTQ2-HA (human Delta-like 4 with the D of the cryptic motif NLSD changed to N) (from UniProt Q9NR61 27-685) (ligand)
DLL4-mTQ2-HA (human Delta-like 4) (from UniProt Q9NR61 27-685) (ligand)
JAG1-N2A-mTQ2-HA (human Jagged 1 with the first N of the NxxN motif NTTN changed to A) (from UniProt P78504 34-1218) (ligand)
JAG1-mTQ2-HA (human Jagged 1) (from UniProt P78504 34-1218) (ligand)
